The other results are listed elsewhere or left out.

The chains behind the UniProt entries cited, without tags or fusion partners. Where a name states a change or a piece, a line headed by the entry shows the natural chain unless it says otherwise.
UniProt Q03252: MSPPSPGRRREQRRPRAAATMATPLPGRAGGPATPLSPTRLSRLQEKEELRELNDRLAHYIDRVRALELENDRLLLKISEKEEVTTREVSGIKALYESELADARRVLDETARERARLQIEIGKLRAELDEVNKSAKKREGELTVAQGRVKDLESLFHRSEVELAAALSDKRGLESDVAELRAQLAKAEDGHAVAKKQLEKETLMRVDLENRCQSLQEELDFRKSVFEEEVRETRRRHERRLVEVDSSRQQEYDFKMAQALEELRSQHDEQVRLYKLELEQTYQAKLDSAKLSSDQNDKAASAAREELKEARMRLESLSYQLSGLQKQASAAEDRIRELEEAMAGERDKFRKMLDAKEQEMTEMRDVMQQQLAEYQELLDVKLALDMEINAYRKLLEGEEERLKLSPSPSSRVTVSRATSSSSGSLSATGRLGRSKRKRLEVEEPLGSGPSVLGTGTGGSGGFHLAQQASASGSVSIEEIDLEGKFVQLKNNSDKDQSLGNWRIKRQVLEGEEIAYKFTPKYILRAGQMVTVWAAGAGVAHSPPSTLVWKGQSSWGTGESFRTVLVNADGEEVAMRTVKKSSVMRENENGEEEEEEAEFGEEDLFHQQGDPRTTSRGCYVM
UniProt Q9UN81: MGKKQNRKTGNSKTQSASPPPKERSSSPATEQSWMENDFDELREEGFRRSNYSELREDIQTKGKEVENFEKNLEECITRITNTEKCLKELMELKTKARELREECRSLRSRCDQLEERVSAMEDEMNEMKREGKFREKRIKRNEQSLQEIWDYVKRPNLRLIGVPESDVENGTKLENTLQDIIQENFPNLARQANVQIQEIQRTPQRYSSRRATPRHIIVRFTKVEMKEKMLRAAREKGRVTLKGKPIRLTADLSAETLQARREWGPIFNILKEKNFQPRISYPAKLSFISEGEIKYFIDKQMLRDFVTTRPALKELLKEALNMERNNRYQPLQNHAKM
UniProt O94898: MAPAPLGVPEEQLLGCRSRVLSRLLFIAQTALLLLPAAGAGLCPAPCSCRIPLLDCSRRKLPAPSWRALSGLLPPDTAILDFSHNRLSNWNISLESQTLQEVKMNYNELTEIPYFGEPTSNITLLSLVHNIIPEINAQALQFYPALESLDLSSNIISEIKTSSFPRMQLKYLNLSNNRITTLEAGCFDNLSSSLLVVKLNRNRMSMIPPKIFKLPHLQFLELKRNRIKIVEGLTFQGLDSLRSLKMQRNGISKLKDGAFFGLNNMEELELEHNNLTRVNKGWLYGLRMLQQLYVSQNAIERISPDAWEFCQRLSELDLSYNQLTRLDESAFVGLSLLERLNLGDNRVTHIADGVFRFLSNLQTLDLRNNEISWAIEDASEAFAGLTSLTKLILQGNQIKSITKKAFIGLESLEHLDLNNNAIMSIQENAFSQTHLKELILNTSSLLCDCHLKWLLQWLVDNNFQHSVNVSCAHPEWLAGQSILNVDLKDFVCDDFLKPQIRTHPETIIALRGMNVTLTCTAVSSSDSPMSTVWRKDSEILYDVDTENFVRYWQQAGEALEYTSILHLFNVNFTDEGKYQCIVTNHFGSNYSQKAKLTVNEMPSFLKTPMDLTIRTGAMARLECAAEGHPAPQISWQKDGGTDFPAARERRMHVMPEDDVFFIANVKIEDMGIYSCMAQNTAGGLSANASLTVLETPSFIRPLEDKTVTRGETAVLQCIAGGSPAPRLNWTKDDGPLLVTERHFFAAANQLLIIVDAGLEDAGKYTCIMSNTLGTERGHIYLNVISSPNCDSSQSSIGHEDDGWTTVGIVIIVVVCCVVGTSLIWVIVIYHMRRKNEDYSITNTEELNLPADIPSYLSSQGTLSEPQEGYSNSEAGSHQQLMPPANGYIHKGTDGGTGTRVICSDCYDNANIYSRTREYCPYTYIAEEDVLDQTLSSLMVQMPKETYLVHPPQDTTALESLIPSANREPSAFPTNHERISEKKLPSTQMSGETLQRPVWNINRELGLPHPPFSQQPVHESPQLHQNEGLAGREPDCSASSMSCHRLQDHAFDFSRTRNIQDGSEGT
UniProt Q6P1Q0: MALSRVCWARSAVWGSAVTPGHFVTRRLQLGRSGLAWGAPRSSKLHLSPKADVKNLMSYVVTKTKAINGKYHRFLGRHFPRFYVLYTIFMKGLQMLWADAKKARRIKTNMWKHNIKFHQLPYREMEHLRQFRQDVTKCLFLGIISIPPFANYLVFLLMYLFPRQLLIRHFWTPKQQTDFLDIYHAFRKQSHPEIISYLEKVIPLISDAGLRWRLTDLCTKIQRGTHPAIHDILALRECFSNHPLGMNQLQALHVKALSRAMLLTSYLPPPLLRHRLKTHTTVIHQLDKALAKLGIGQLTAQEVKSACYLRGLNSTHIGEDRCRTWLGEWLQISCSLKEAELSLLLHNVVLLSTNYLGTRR
UniProt Q9NT99: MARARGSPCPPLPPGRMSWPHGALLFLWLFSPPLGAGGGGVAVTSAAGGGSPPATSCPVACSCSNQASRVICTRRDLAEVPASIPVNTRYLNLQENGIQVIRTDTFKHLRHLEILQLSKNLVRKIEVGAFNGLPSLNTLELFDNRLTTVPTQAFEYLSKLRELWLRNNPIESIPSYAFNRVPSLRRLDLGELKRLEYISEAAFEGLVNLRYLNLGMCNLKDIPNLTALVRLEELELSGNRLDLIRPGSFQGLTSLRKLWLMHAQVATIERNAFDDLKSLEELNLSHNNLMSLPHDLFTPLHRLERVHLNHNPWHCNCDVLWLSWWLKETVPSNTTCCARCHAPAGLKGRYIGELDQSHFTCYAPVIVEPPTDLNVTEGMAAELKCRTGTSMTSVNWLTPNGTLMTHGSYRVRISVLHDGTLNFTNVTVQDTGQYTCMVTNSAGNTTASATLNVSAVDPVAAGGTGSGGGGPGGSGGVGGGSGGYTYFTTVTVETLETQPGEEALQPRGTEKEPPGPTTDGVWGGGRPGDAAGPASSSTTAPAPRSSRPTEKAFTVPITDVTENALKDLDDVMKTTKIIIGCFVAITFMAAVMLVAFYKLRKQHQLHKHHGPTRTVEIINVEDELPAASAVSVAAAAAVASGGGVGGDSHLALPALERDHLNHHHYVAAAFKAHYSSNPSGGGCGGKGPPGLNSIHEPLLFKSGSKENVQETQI
UniProt Q6YP21: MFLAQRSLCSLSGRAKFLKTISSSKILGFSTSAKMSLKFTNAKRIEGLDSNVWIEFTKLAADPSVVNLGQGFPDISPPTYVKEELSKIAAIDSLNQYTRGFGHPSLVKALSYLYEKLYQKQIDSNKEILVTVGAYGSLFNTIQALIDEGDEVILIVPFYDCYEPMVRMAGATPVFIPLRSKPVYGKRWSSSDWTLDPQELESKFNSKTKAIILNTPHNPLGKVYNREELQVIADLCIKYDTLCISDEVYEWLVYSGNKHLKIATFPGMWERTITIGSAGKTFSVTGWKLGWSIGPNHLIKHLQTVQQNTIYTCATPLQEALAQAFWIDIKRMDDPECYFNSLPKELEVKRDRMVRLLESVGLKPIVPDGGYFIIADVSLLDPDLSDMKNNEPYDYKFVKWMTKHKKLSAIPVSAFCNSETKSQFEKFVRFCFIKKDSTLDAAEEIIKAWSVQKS
UniProt Q92539: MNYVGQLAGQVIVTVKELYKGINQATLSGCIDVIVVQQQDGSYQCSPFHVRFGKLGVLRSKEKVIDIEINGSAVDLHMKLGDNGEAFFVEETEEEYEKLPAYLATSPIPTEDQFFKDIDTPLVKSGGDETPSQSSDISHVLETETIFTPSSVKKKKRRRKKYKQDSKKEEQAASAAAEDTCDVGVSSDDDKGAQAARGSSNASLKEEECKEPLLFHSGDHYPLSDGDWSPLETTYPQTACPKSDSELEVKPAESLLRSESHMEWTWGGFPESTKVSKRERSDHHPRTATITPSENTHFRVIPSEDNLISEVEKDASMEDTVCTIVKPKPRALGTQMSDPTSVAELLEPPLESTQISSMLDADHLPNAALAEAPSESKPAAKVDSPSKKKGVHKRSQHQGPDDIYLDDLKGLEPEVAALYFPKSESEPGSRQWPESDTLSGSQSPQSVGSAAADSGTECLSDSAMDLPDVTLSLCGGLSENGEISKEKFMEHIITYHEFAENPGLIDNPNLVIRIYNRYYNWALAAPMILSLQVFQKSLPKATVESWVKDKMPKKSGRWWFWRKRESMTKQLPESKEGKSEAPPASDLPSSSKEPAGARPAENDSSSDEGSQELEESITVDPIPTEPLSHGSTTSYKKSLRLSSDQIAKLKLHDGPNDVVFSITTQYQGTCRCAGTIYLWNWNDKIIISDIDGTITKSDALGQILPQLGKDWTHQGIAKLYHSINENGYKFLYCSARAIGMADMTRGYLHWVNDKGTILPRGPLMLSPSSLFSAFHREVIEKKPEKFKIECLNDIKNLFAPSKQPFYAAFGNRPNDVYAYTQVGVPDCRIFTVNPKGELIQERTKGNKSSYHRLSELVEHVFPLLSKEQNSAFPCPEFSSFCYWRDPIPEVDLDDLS
UniProt Q9P2J5: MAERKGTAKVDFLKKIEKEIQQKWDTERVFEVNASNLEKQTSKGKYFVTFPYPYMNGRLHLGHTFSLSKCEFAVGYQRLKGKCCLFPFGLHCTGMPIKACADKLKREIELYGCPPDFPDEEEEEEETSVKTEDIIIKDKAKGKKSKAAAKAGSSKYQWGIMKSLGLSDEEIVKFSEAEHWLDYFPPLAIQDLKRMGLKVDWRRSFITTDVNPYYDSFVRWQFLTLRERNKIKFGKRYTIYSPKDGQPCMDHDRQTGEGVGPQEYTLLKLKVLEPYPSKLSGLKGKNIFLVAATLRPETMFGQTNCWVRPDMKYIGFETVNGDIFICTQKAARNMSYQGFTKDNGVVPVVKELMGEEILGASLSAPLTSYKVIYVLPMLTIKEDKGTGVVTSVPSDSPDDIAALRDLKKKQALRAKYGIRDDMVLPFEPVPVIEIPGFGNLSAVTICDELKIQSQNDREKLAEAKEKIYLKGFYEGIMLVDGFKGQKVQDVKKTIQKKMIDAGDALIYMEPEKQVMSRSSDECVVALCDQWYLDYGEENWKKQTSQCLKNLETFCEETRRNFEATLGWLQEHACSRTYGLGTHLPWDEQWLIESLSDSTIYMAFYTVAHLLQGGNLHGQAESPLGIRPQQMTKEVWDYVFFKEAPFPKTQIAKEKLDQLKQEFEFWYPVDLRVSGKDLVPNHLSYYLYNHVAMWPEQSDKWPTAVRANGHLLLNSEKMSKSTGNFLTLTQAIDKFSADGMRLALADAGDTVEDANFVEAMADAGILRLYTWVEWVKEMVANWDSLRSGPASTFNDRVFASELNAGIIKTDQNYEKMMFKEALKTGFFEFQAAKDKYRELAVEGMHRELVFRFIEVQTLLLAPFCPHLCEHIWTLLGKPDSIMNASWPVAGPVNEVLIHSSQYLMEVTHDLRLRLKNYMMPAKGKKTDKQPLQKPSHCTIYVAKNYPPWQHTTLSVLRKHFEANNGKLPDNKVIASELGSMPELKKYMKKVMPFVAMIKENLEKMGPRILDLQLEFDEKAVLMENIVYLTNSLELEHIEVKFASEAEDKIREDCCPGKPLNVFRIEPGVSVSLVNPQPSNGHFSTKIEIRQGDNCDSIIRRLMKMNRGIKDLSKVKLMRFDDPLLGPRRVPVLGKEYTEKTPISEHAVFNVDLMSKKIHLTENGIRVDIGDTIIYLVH
UniProt Q8TCA0: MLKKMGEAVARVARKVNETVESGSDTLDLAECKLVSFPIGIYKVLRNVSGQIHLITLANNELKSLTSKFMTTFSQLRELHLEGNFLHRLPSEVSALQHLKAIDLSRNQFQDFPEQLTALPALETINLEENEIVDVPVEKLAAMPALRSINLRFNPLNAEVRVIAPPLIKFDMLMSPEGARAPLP
UniProt Q8N9N7: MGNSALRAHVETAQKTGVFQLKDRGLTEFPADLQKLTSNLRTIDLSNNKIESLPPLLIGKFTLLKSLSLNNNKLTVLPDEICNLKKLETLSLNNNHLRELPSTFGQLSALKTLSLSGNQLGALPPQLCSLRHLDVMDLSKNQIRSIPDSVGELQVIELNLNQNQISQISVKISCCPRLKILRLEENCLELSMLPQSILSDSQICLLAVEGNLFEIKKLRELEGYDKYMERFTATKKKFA
UniProt Q9NS86: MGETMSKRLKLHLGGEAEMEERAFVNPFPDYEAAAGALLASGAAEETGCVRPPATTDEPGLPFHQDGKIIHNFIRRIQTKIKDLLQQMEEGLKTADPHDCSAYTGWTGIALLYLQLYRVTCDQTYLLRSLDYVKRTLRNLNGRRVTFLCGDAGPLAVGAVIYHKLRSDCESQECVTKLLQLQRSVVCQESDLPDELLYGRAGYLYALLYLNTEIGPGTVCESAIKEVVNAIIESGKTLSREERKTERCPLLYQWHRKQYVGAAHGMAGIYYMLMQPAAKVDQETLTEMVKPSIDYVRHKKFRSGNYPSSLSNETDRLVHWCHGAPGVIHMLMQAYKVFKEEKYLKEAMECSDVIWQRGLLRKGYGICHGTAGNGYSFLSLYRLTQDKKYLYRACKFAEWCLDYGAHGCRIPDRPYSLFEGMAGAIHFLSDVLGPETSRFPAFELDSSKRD

Our source for the log2 fold change values is the supplement of paper PMC10849652.

Compound in the first experiment: CC[C@H](C)N1C=C(C2=C(C=C(C=C21)C3=CN=C(C=C3)N4CCNCC4)C(=O)NCC5=C(C=C(NC5=O)C)C)C
Kind of experiment: log2 fold change, soluble protein after heating vs DMSO (PISA); higher = thermal stabilisation; K562 cells, 10 uM, 30 min; active = over 0.2 and 3.5 SD of the protein, either way, in both replicates (recomputed). Put shortly: (§1)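 K562 cells at 2×10^6 cells/mL were treated for 30 min with 10 μM compound, and aliquots were heated for 3 min over 48°C-58°C before pooling. Extraction used PBS with 0.5% NP-40 at 4°C, and soluble protein was the supernatant after 21,000xg for 90 min, measured by TMTpro 16plex LC-MS/MS with channel sums equalised. Thermal stability values, relative to control samples and from duplicates, are log2 fold changes.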
For the target LMNB2 (UniProt Q03252), the log2 fold change was inactive: 0.024.

With LRRC47 (UniProt Q8N1G4), the log2 fold change was inactive: 0.01.

For the target L1RE1 (UniProt Q9UN81), the log2 fold change was inactive: -0.013.

On to LRPAP1 (UniProt P30533), for which the log2 fold change was inactive: 0.008.

Regarding LRIG2 (UniProt O94898), the log2 fold change was inactive: -0.222.

For LCMT2 (UniProt O60294), the log2 fold change was inactive: 0.014.

For LIN7C (UniProt Q9NUP9), the log2 fold change was inactive: -0.018.

For LETMD1 isoform 7 (UniProt Q6P1Q0), the log2 fold change was inactive: 0.058.

With LRRC4B (UniProt Q9NT99), the log2 fold change was inactive: 0.147.

Compound in a further experiment: CC[C@H](C)[C@@H](C(=O)N[C@@H]([C@@H](C)O)C(=O)N[C@@H](CC(C)C)C(=O)[C@]1(CO1)C)NC(=O)[C@H]([C@@H](C)CC)N(C)C(=O)C [epoxomicin]
Described as above. The method, boiled down: as §1
Take KYNU (UniProt Q16719): the log2 fold change was inactive: 0.008.

As for KTN1 (UniProt Q86UP2), the log2 fold change was inactive: 0.037.

For LPIN3 isoform 2 (UniProt Q9BQK8), the log2 fold change is inactive: 0.073.

Turning to LDHA isoform 3 (UniProt P00338), the log2 fold change was inactive: 0.002.

On to KYAT3 (UniProt Q6YP21), for which the log2 fold change was inactive: -0.03.

LASP1 (UniProt Q14847): the log2 fold change is inactive: 0.007.

Turning to LCLAT1 (UniProt Q6UWP7), the log2 fold change is inactive: 0.048.

For LAMTOR4 (UniProt Q0VGL1), the log2 fold change is inactive: 0.011.

With LLPH (UniProt Q9BRT6), the log2 fold change is inactive: -0.371.

With LMAN2 (UniProt Q12907), the log2 fold change is inactive: 0.016.

In the case of LPIN2 (UniProt Q92539), the log2 fold change is inactive: 0.026.

LARP7 isoform 3 (UniProt Q4G0J3): the log2 fold change was inactive: -0.081.

For LLGL2 (UniProt Q6P1M3), the log2 fold change was inactive: -0.091.

For LARS (UniProt Q9P2J5), the log2 fold change was inactive: -0.165.

Turning to LAMTOR5 (UniProt O43504), the log2 fold change was inactive: 0.235.

As for LRRC59 (UniProt Q96AG4), the log2 fold change was inactive: -0.013.

Consider LGALS1 (UniProt P09382), for which the log2 fold change is inactive: -0.007.

In the case of LIMK2 isoform 3 (UniProt P53671), the log2 fold change was inactive: 0.007.

Turning to LIN7A (UniProt O14910), the log2 fold change is inactive: 0.072.

Consider LRRC20 (UniProt Q8TCA0), for which the log2 fold change is inactive: 0.023.

As for LRRC57 (UniProt Q8N9N7), the log2 fold change is inactive: -0.008.

On to LANCL2 (UniProt Q9NS86), for which the log2 fold change is inactive: 0.02.

Consider LMNA (UniProt P02545), for which the log2 fold change is inactive: -0.014.

On to LMNB2 (UniProt Q03252), for which the log2 fold change was inactive: 0.028.

Regarding LRRC47 (UniProt Q8N1G4), the log2 fold change was inactive: 0.025.

With L1RE1 (UniProt Q9UN81), the log2 fold change was inactive: 0.033.

For LRPAP1 (UniProt P30533), the log2 fold change was inactive: 0.013.

LRIG2 (UniProt O94898): the log2 fold change was inactive: 0.095.

In the case of LCMT2 (UniProt O60294), the log2 fold change was inactive: -0.131.

For the target LIN7C (UniProt Q9NUP9), the log2 fold change was inactive: 0.056.

For LETMD1 isoform 7 (UniProt Q6P1Q0), the log2 fold change is inactive: -0.042.

As to LRRC4B (UniProt Q9NT99), the log2 fold change is inactive: -0.027.

Compound in another experiment: CCn1c(C(=O)N(C2CC2)C2CC2)cc2c3c(ncn3C)c(Nc3cc(C)n(C)n3)nc21
The experiment is described as above. Put shortly: as §1
Take KYNU (UniProt Q16719): the log2 fold change is inactive: 0.05.

As for LDHA isoform 3 (UniProt P00338), the log2 fold change was inactive: 0.038.

As to KYAT3 (UniProt Q6YP21), the log2 fold change is inactive: 0.014.

In the case of LASP1 (UniProt Q14847), the log2 fold change was inactive: 0.037.

For LCLAT1 (UniProt Q6UWP7), the log2 fold change was inactive: -0.046.

Consider LAMTOR4 (UniProt Q0VGL1), for which the log2 fold change is inactive: 0.102.

As for LLPH (UniProt Q9BRT6), the log2 fold change was inactive: -0.021.

On to LMAN2 (UniProt Q12907), for which the log2 fold change was inactive: 0.007.

On to LPIN2 (UniProt Q92539), for which the log2 fold change was inactive: -0.028.

Turning to LLGL2 (UniProt Q6P1M3), the log2 fold change was inactive: -0.009.

Regarding LARS (UniProt Q9P2J5), the log2 fold change is inactive: -0.042.

Turning to LAMTOR5 (UniProt O43504), the log2 fold change is inactive: 0.047.

In the case of LRRC59 (UniProt Q96AG4), the log2 fold change was inactive: 0.01.

In the case of LGALS1 (UniProt P09382), the log2 fold change is inactive: 0.057.

LIMK2 isoform 3 (UniProt P53671): the log2 fold change is inactive: -0.011.

Regarding LIN7A (UniProt O14910), the log2 fold change was inactive: 0.028.

Turning to LRRC20 (UniProt Q8TCA0), the log2 fold change was inactive: 0.063.

On to LRRC57 (UniProt Q8N9N7), for which the log2 fold change was inactive: -0.015.

On to LANCL2 (UniProt Q9NS86), for which the log2 fold change is inactive: -0.01.

LRRC47 (UniProt Q8N1G4): the log2 fold change was inactive: -0.004.

Turning to L1RE1 (UniProt Q9UN81), the log2 fold change was inactive: -0.051.

In the case of LRPAP1 (UniProt P30533), the log2 fold change is inactive: 0.045.

Regarding LRIG2 (UniProt O94898), the log2 fold change was inactive: 0.071.

In the case of LCMT2 (UniProt O60294), the log2 fold change was inactive: -0.115.

Turning to LIN7C (UniProt Q9NUP9), the log2 fold change is inactive: -0.019.

Regarding LETMD1 isoform 7 (UniProt Q6P1Q0), the log2 fold change was inactive: 0.033.

Take LRRC4B (UniProt Q9NT99): the log2 fold change was inactive: -0.154.

Compound in the next experiment: CCn1cc(-c2ccnc3[nH]c(-c4cccc(CN(C)C)c4)cc23)c(-c2ccc(NC(=O)N(C)C)cc2)n1
The description is as above. The method, boiled down: as §1
Turning to KYNU (UniProt Q16719), the log2 fold change was inactive: 0.031.

As for KTN1 (UniProt Q86UP2), the log2 fold change was inactive: 0.084.

For LPIN3 isoform 2 (UniProt Q9BQK8), the log2 fold change was inactive: -0.078.

In the case of LDHA isoform 3 (UniProt P00338), the log2 fold change is inactive: -0.005.

KYAT3 (UniProt Q6YP21): the log2 fold change was inactive: 0.001.

As to LASP1 (UniProt Q14847), the log2 fold change is inactive: 0.025.

As to LCLAT1 (UniProt Q6UWP7), the log2 fold change is inactive: -0.047.

As for LAMTOR4 (UniProt Q0VGL1), the log2 fold change is inactive: -0.011.

With LLPH (UniProt Q9BRT6), the log2 fold change was inactive: 0.424.

For the target LMAN2 (UniProt Q12907), the log2 fold change is inactive: -0.025.

For LPIN2 (UniProt Q92539), the log2 fold change was inactive: 0.071.

LARP7 isoform 3 (UniProt Q4G0J3): the log2 fold change was inactive: -0.032.

As for LLGL2 (UniProt Q6P1M3), the log2 fold change was inactive: 0.12.

For the target LARS (UniProt Q9P2J5), the log2 fold change was inactive: 0.079.

As for LAMTOR5 (UniProt O43504), the log2 fold change is inactive: 0.082.

For LRRC59 (UniProt Q96AG4), the log2 fold change is inactive: 0.011.

As to LGALS1 (UniProt P09382), the log2 fold change was inactive: -0.003.

LIMK2 isoform 3 (UniProt P53671): the log2 fold change was inactive: 0.062.

Take LRRC20 (UniProt Q8TCA0): the log2 fold change is inactive: 0.026.

With LRRC57 (UniProt Q8N9N7), the log2 fold change was inactive: -0.064.

For LANCL2 (UniProt Q9NS86), the log2 fold change is inactive: 0.009.

On to LMNA (UniProt P02545), for which the log2 fold change is inactive: 0.057.

For LMNB2 (UniProt Q03252), the log2 fold change is inactive: 0.043.

With LRRC47 (UniProt Q8N1G4), the log2 fold change was inactive: -0.068.

As for LRPAP1 (UniProt P30533), the log2 fold change was inactive: -0.017.

Regarding LRIG2 (UniProt O94898), the log2 fold change was inactive: 0.002.

As for LCMT2 (UniProt O60294), the log2 fold change is inactive: 0.

Take LIN7C (UniProt Q9NUP9): the log2 fold change is inactive: -0.018.

As to LETMD1 isoform 7 (UniProt Q6P1Q0), the log2 fold change is inactive: 0.08.

With LRRC4B (UniProt Q9NT99), the log2 fold change is inactive: -0.005.
